# Measurements: the supplement of paper PMC8728848
# The other results are listed elsewhere or left out.
# How the values were obtained:
# Test in all cases: glycan array binding signal (z-score within array); higher = stronger binding
# Details in all cases: glycan notation: IUPAC condensed, linker removed
# [1] = target: Neu5Ac(a2-6)Gal(b1-4)GlcNAc6S
# Outline: (§1)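 The binding signal is a Z-score computed within each array and averaged over linkers. Arrays of the same protein sequence at different concentrations or buffers were also averaged together. Data originate from 3228 arrays in the Consortium for Functional Glycomics database, kept only where the protein sequence was available.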
# [2] = target: Neu5Ac(a2-6)GalNAc
# Outline: as §1
# [3] = target: Neu5Ac(a2-6)GalNAc(b1-4)GlcNAc
# Outline: as §1
# [4] = target: Neu5Ac(a2-6)GalNAc(b1-4)GlcNAc6S
# Outline: as §1
# [5] = target: Neu5Ac(a2-6)GlcNAc(b1-4)GlcNAc
# Outline: as §1
# [6] = target: Neu5Ac(a2-6)GlcNAc(b1-4)GlcNAc(b1-4)GlcNAc
# Outline: as §1
# [7] = target: Neu5Ac(a2-8)Neu5Ac
# Outline: as §1
# [8] = target: Neu5Ac(a2-8)Neu5Ac(a2-3)Gal(b1-3)GalNAc(b1-4)[Neu5Ac(a2-8)Neu5Ac(a2-3)]Gal(b1-4)Glc
# Outline: as §1
# [9] = target: Neu5Ac(a2-8)Neu5Ac(a2-3)Gal(b1-4)Glc
# Outline: as §1
# [10] = target: Neu5Ac(a2-8)Neu5Ac(a2-3)[Gal(b1-3)GalNAc(b1-4)]Gal(b1-4)Glc
# Outline: as §1
# [11] = target: Neu5Ac(a2-8)Neu5Ac(a2-3)[GalNAc(b1-4)]Gal(b1-4)Glc
# Outline: as §1
# [12] = target: Neu5Ac(a2-8)Neu5Ac(a2-8)Neu5Ac
# Outline: as §1
# [13] = target: Neu5Ac(a2-8)Neu5Ac(a2-8)Neu5Ac(a2-3)Gal(b1-4)Glc
# Outline: as §1
# [14] = target: Neu5Ac(a2-8)Neu5Ac(a2-8)Neu5Ac(a2-3)[GalNAc(b1-4)]Gal(b1-4)Glc
# Outline: as §1
# [15] = target: Neu5Ac(a2-8)Neu5Ac(a2-8)Neu5Ac(a2-8)Neu5Ac(a2-3)[GalNAc(b1-4)]Gal(b1-4)Glc
# Outline: as §1
# [16] = target: Neu5Ac(b2-6)Gal(b1-4)GlcNAc
# Outline: as §1
# [17] = target: Neu5Ac(b2-6)GalNAc
# Outline: as §1
# [18] = target: Neu5Ac9Ac(a2-3)Gal(b1-3)GlcNAc
# Outline: as §1
# [19] = target: Neu5Ac9Ac(a2-3)Gal(b1-4)GlcNAc
# Outline: as §1
# [20] = target: Neu5Ac9Ac(a2-6)Gal(b1-4)GlcNAc
# Outline: as §1
# [21] = target: Neu5Gc(a2-3)Gal(b1-3)GlcNAc
# Outline: as §1
# [22] = target: Neu5Gc(a2-3)Gal(b1-3)[Fuc(a1-4)]GlcNAc
# Outline: as §1
# [23] = target: Neu5Gc(a2-3)Gal(b1-4)Glc
# Outline: as §1
# [24] = target: Neu5Gc(a2-3)Gal(b1-4)GlcNAc
# Outline: as §1
# [25] = target: Neu5Gc(a2-3)Gal(b1-4)[Fuc(a1-3)]GlcNAc
# Outline: as §1
# [26] = target: Neu5Gc(a2-6)Gal(b1-4)GlcNAc
# Outline: as §1
# [27] = target: Neu5Gc(a2-6)GalNAc
# Outline: as §1
# [28] = target: Neu5Gc(b2-6)Gal(b1-4)GlcNAc
# Outline: as §1
binder,measurement,setting,value
"Latrophilin-3 (Homo sapiens), Q9HAR2 (protein) MWPSQLLIFMMLLAPIIHAFSRAPIPMAVVRRELSCESYPIELRCPGTDVIMIESANYGRTDDKICDSDPAQMENIRCYLPDAYKIMSQRCNNRTQCAVVAGPDVFPDPCPGTYKYLEVQYECVPYKVEQKVFLCPGLLKGVYQSEHLFESDHQSGAWCKDPLQASDKIYYMPWTPYRTDTLTEYSSKDDFIAGRPTTTYKLPHRVDGTGFVVYDGALFFNKERTRNIVKFDLRTRIKSGEAIIANANYHDTSPYRWGGKSDIDLAVDENGLWVIYATEQNNGKIVISQLNPYTLRIEGTWDTAYDKRSASNAFMICGILYVVKSVYEDDDNEATGNKIDYIYNTDQSKDSLVDVPFPNSYQYIAAVDYNPRDNLLYVWNNYHVVKYSLDFGPLDSRSGQAHHGQVSYISPPIHLDSELERPSVKDISTTGPLGMGSTTTSTTLRTTTLSPGRSTTPSVSGRRNRSTSTPSPAVEVLDDMTTHLPSASSQIPALEESCEAVEAREIMWFKTRQGQIAKQPCPAGTIGVSTYLCLAPDGIWDPQGPDLSNCSSPWVNHITQKLKSGETAANIARELAEQTRNHLNAGDITYSVRAMDQLVGLLDVQLRNLTPGGKDSAARSLNKAMVETVNNLLQPQALNAWRDLTTSDQLRAATMLLHTVEESAFVLADNLLKTDIVRENTDNIKLEVARLSTEGNLEDLKFPENMGHGSTIQLSANTLKQNGRNGEIRVAFVLYNNLGPYLSTENASMKLGTEALSTNHSVIVNSPVITAAINKEFSNKVYLADPVVFTVKHIKQSEENFNPNCSFWSYSKRTMTGYWSTQGCRLLTTNKTHTTCSCNHLTNFAVLMAHVEVKHSDAVHDLLLDVITWVGILLSLVCLLICIFTFCFFRGLQSDRNTIHKNLCISLFVAELLFLIGINRTDQPIACAVFAALLHFFFLAAFTWMFLEGVQLYIMLVEVFESEHSRRKYFYLVGYGMPALIVAVSAAVDYRSYGTDKVCWLRLDTYFIWSFIGPATLIIMLNVIFLGIALYKMFHHTAILKPESGCLDNIKSWVIGAIALLCLLGLTWAFGLMYINESTVIMAYLFTIFNSLQGMFIFIFHCVLQKKVRKEYGKCLRTHCCSGKSTESSIGSGKTSGSRTPGRYSTGSQSRIRRMWNDTVRKQSESSFITGDINSSASLNREGLLNNARDTSVMDTLPLNGNHGNSYSIASGEYLSNCVQIIDRGYNHNETALEKKILKELTSNYIPSYLNNHERSSEQNRNLMNKLVNNLGSGREDDAIVLDDATSFNHEESLGLELIHEESDAPLLPPRVYSTENHQPHHYTRRRIPQDHSESFFPLLTNEHTEDLQSPHRDSLYTSMPTLAGVAATESVTTSTQTEPPPAKCGDAEDVYYKSMPNLGSRNHVHQLHTYYQLGRGSSDGFIVPPNKDGTPPEGSSKGPAHLVTSL",glycan array binding signal (z-score),[1],-0.062
same,glycan array binding signal (z-score),[2],-0.233
same,glycan array binding signal (z-score),[3],0.53
same,glycan array binding signal (z-score),[4],-0.44
same,glycan array binding signal (z-score),[5],-0.089
same,glycan array binding signal (z-score),[6],-0.108
same,glycan array binding signal (z-score),[7],-0.096
same,glycan array binding signal (z-score),[8],-0.313
same,glycan array binding signal (z-score),[9],-0.343
same,glycan array binding signal (z-score),[10],-0.672
same,glycan array binding signal (z-score),[11],-0.198
same,glycan array binding signal (z-score),[12],-1.22
same,glycan array binding signal (z-score),[13],-0.841
same,glycan array binding signal (z-score),[14],-1.01
same,glycan array binding signal (z-score),[15],-1.76
same,glycan array binding signal (z-score),[16],0.351
same,glycan array binding signal (z-score),[17],1.22
same,glycan array binding signal (z-score),[18],-0.552
same,glycan array binding signal (z-score),[19],0.731
same,glycan array binding signal (z-score),[20],-0.383
same,glycan array binding signal (z-score),[21],-1.71
same,glycan array binding signal (z-score),[22],-0.381
same,glycan array binding signal (z-score),[23],0.387
same,glycan array binding signal (z-score),[24],0.533
same,glycan array binding signal (z-score),[25],0.754
same,glycan array binding signal (z-score),[26],0.125
same,glycan array binding signal (z-score),[27],1.3
same,glycan array binding signal (z-score),[28],0.723
